These are yes or no findings as the source states them, for the method shown. Binding seen in cells or lysates may run through a third protein. A yes stands for co-enrichment or nearness to the bait. Other partners may have been found.

Protein sequences, listed by entry. Tags and fused reporters are not part of them. Lines headed by an entry give the natural chain unless they say otherwise; changes in a name come on top.
UniProt Q4Q8B2: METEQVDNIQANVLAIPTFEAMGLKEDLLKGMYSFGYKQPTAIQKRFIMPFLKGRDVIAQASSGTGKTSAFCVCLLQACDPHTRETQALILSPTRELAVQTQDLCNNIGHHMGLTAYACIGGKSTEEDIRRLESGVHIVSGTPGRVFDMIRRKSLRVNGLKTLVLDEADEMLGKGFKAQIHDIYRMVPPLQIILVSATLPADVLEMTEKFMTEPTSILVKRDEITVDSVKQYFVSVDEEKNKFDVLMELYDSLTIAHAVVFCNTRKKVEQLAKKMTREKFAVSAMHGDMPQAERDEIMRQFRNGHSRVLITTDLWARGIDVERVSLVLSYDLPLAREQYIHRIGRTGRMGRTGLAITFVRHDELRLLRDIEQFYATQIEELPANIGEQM
UniProt Q4QJ78: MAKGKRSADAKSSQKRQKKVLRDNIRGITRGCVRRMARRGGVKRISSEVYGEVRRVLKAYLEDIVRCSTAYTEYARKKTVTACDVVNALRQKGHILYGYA
UniProt Q4Q1H0: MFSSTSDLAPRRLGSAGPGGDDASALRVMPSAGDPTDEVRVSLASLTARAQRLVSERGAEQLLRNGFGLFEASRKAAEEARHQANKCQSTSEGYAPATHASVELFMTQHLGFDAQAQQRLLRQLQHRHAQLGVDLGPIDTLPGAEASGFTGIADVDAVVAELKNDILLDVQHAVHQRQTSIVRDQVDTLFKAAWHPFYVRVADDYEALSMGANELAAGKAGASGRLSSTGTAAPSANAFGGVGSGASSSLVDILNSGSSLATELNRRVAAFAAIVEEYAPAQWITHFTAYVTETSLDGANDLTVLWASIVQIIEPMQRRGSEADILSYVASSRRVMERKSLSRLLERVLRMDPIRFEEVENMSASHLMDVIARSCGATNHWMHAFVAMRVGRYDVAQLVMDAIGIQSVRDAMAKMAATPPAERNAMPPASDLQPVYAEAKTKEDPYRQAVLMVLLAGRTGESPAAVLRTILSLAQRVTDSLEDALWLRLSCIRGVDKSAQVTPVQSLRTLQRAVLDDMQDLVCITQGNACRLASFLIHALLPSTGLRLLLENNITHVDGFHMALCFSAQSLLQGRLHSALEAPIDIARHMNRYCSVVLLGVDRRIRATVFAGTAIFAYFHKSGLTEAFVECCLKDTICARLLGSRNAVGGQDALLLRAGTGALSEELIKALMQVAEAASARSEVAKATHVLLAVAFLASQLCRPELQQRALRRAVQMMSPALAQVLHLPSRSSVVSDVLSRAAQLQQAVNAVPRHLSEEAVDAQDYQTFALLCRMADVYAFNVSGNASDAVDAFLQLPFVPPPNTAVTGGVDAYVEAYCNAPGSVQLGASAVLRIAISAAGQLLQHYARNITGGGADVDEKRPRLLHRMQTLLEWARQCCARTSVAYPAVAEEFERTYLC
UniProt E9AEB7: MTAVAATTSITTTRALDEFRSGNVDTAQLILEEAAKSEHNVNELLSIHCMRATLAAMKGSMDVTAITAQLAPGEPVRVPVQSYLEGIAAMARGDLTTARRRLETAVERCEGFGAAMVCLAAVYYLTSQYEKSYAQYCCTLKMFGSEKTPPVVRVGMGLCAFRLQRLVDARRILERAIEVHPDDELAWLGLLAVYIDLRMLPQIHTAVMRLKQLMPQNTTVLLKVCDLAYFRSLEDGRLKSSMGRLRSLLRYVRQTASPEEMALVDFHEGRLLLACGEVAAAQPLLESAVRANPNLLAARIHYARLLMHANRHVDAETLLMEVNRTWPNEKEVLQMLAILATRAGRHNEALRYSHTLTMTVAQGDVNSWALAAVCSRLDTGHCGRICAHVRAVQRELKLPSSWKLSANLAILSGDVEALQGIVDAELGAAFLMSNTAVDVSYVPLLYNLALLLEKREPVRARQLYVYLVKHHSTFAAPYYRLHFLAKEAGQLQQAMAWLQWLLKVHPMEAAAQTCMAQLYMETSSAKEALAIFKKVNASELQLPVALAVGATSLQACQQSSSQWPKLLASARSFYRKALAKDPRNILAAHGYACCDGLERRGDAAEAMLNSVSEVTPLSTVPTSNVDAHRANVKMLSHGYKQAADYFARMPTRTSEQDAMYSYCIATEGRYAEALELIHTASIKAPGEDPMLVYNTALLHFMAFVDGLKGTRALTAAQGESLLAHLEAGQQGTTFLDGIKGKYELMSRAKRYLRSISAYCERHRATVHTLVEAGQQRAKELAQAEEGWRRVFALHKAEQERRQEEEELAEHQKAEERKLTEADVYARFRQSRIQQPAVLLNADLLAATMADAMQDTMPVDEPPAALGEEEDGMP
UniProt E9AFA9: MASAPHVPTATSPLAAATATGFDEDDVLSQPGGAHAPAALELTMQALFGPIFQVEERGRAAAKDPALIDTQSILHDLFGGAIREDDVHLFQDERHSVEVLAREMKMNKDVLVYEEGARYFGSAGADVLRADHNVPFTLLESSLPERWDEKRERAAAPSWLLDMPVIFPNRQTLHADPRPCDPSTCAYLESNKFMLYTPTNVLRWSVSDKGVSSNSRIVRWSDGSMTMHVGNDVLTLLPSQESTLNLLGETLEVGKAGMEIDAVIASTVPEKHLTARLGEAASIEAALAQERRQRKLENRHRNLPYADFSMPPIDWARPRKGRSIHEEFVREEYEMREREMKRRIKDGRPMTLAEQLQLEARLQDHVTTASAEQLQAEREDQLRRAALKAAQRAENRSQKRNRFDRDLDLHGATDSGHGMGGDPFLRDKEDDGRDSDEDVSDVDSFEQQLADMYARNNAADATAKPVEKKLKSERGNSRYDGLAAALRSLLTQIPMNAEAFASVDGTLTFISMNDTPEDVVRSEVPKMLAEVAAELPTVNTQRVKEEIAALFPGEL
UniProt E9AEI4: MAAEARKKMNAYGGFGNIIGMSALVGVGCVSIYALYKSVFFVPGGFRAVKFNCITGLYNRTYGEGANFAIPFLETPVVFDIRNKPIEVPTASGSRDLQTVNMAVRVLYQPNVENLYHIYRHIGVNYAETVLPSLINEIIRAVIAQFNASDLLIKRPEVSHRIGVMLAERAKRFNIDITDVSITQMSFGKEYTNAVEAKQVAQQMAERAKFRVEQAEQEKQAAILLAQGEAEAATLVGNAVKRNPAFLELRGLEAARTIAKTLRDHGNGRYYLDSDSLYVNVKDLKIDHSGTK
UniProt Q4QII7: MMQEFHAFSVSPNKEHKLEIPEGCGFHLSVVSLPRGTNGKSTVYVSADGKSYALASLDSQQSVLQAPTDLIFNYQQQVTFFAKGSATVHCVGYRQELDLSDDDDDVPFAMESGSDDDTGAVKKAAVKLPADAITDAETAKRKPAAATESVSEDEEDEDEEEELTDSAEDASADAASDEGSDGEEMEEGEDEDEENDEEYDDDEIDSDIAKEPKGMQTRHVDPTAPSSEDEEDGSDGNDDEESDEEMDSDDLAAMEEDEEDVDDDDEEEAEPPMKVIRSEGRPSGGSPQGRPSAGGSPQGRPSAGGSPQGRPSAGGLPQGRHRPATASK
UniProt Q4Q600: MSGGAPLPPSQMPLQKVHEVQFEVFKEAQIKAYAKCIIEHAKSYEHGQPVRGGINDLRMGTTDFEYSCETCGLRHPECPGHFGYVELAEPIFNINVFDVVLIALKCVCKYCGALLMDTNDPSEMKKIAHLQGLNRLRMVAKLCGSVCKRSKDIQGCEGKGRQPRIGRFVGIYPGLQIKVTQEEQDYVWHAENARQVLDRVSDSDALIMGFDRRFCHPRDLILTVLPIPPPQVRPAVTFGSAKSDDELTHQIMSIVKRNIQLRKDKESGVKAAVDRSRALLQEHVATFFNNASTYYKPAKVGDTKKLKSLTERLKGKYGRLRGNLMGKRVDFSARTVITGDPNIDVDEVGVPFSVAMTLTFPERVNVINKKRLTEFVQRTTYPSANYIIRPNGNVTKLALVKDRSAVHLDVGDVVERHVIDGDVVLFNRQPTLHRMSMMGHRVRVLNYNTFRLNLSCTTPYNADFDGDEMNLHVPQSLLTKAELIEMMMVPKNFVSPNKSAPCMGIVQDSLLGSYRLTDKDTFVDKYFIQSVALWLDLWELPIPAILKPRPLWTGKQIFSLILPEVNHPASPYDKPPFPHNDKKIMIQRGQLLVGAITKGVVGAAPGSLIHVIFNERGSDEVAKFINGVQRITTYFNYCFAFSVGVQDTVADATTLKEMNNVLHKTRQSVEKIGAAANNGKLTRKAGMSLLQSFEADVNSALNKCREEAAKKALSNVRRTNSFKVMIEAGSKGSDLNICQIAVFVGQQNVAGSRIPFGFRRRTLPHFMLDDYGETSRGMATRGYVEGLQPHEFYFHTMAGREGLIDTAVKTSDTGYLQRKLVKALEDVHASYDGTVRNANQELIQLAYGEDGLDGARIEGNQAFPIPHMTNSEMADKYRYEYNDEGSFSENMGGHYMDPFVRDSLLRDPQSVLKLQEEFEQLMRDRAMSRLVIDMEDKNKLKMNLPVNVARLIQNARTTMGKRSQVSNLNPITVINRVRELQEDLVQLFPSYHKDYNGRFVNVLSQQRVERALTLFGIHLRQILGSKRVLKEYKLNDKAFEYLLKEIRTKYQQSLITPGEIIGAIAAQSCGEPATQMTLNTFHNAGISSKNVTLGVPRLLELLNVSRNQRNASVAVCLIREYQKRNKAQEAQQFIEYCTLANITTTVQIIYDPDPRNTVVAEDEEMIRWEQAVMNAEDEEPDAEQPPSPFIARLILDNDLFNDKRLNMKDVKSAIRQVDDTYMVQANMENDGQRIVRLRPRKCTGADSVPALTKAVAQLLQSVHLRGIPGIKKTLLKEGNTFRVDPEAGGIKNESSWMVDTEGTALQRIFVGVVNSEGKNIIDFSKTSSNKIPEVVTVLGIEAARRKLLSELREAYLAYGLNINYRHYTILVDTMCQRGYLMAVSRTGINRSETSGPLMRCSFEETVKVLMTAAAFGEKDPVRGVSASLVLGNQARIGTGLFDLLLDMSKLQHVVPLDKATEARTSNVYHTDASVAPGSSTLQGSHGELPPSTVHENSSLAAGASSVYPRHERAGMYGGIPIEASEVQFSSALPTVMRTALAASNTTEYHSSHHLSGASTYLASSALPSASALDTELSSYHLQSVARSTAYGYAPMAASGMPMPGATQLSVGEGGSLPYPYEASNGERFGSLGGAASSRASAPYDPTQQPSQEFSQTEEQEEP
UniProt Q4QGN6: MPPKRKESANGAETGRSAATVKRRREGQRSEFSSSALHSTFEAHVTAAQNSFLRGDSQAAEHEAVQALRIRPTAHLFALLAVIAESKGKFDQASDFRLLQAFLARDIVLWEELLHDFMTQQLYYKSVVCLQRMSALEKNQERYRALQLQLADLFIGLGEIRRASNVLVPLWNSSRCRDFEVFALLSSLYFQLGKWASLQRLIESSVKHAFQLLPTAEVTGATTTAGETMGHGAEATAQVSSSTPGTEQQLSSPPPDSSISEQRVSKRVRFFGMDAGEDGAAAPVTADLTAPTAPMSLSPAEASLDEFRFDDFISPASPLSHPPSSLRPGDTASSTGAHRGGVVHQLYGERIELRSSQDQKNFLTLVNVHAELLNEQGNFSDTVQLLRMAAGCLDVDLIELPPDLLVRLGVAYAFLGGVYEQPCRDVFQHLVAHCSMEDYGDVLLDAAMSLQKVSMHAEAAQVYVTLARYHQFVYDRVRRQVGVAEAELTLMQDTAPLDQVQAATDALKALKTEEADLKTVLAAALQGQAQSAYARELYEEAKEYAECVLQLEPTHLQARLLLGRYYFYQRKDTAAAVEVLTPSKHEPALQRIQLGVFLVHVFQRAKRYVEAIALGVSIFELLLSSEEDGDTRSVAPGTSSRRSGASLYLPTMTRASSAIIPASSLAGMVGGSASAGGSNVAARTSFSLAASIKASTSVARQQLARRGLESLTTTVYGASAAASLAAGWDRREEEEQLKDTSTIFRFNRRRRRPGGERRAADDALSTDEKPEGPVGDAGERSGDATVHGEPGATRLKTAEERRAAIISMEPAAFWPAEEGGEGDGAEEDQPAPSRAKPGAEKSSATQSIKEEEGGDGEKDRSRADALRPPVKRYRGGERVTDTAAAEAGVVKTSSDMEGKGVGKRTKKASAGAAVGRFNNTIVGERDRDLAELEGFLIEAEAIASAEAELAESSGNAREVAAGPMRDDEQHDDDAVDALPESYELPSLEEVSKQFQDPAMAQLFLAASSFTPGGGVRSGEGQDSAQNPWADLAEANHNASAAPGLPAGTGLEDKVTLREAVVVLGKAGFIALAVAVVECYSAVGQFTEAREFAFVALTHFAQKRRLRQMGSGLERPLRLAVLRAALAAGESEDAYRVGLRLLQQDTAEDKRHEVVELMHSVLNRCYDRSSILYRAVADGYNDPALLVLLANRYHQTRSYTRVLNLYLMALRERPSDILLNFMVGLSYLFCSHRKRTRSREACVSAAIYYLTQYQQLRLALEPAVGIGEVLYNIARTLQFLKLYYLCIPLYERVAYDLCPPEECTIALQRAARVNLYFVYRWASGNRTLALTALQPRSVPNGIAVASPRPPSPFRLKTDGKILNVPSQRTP

For the experiment, the target named is LmBrf1-PTP (Leishmania major TFIIB-related factor 1 with a C-terminal PTP tag) (Leishmania major) (UniProt Q4QA51). The experiment is described as follows: affinity purification with mass spectrometry; tandem affinity purification of LmBrf1-PTP from whole-cell extracts of mid-log L. major promastigotes (IPP-150 buffer: 10 mM Tris-HCl pH 8.0, 150 mM NaCl, 0.1% NP-40; Triton X-100 lysis): IgG Sepharose, TEV protease elution, anti-Prot C matrix, EGTA elution, 4 °C; SDS-PAGE, in-gel tryptic digestion, LC-MS/MS; three experiments; mock purification with wild-type extract as control.
Turning to “14-3-3 protein 1, putative (from UniProt Q4Q198)”, the binding result is listed as “binds”.
Then “ALBA-domain protein 3 (from UniProt Q4Q2T7)”, with “binds”.
Regarding “ATP-dependent RNA helicase FAL1, putative (from UniProt Q4Q8B2)”, the binding result is “binds”.
In the case of “ATP-dependent RNA helicase SUB2, putative (from UniProt Q4QC38)”, the binding entry is “binds”.
As to “CCR4-NOT transcription complex subunit Not1 (from UniProt Q4QCD3)”, the binding entry was “binds”.
In the case of “CCR4-NOT transcription complex subunit Not5 (from UniProt Q4Q9Q5)”, the binding result was “binds”.
In the case of “Cdc2-related kinase 3 (from UniProt O96526)”, the binding entry is listed as “binds”.
Then “DNA replication licensing factor MCM2, putative (from UniProt Q4Q8I2)”, with “binds”; and “DNA replication licensing factor MCM4, putative (from UniProt Q4QI01)”, with “binds”; and “FACT complex subunit SPT16 (from UniProt E9ADK4)”, with “binds”.
With “High-mobility group protein TDP1 (from UniProt E9ADT8)”, the binding entry was “binds”.
For the substance Histone H4 (from UniProt Q4QJ78), the binding entry is “binds”.
Regarding “KH domain-containing protein, putative (from UniProt E9ADB1)”, the binding entry is recorded as “binds”.
Then “La protein homolog (from UniProt Q4QCG1)”, with “binds”; and “META domain-containing protein (from UniProt Q4QEA3)”, with “binds”; and “Mitogen-activated protein kinase 10, putative (from UniProt Q4QHJ8)”, with “binds”.
Then Nucleoporin NUP96 (from UniProt Q4Q1H0), with “binds”; and “Nucleoside diphosphate kinase B (from UniProt Q9U1E1)”, with “binds”; and “PAF1 complex novel subunit (from UniProt E9ADW9)”, with “binds”.
For “PAF1 complex novel subunit (putative RTF1) (from UniProt Q4QFP6)” the value was “binds”; for “PAF1 complex subunit CTR9 (from UniProt E9AEB7)”, “binds”.
Turning to “PAF1 complex subunit LEO1 (from UniProt E9AFA9)”, the binding entry was “binds”.
For “Prohibitin, putative (from UniProt E9AEI4)”, the binding entry is given as “binds”.
On to “Proliferative cell nuclear antigen (PCNA), putative (from UniProt Q4QF35)”, for which the binding result was “binds”.
Then “Protein Mkt1, putative (from UniProt Q4Q6U6)”, with “binds”; and “Protein phosphatase 2C (from UniProt Q4QA19)”, with “binds”; and “RNA-binding protein 42 (RNA-binding motif protein 42), putative (from UniProt Q4Q6Y1)”, with “binds”.
In the case of “RNA-binding protein-like protein (from UniProt Q4QII7)”, the binding result is given as “binds”.
Then RPB1 (Pol II) (from UniProt Q4Q600), with “binds”; and RPB2 (Pol II) (from UniProt Q4Q6P8), with “binds”.
As to RPB5z (Pol I) (from UniProt Q4QDW3), the binding result was “binds”.
Then RPC1 (Pol III) (from UniProt Q4Q3H2), with “binds”.
On to “Regulatory subunit of protein kinase A-like (from UniProt Q4Q2R2)”, for which the binding result is given as “binds”.
For “Replication factor C subunit 3, putative (from UniProt Q4Q084)”, the binding result is given as “binds”.
In the case of “RuvB-like DNA helicase, putative (from UniProt Q4Q2T4)”, the binding result was “binds”.
Turning to “Staphylococcal nuclease homolog/Tudor domain-containing protein, putative (from UniProt Q4Q5I7)”, the binding entry is reported as “binds”.
For “Stress-induced protein STI1 (from UniProt Q4QI58)”, the binding entry was “binds”.
Turning to “TATA-binding protein (from UniProt Q4QD71)”, the binding result is listed as “binds”.
Then “TFIIIC subunit Tau131, putative (from UniProt Q4QGN6)”, with “binds”; and TFIIS-like (from UniProt Q4Q3Q3), with “binds”.
As to “Transcription elongation factor SPT6 (from UniProt Q4Q3M7)”, the binding result is “binds”.
For “Transcription elongation factor TFIIS (from UniProt Q4Q3Q4)” the value was “binds”; for “tRNA-binding domain-containing protein (from UniProt Q4QBU9)”, “binds”.

Source of the values: PMC7920299.
